Measurements published in US20200179236A1, “METHOD AND PRODUCT FOR CARIES TREATMENT” (Credentis AG, priority 2016, published 2020).

Assay: Penetration of fluorescent P11-4 (200 ppm P11-4 spiked with 10 ppm ATT0647-P11-4) into artificial lesions, confocal microscopy
Design: species or system human; key: 1 = no or low presence; 4 = high presence of fluorescent P11-4
Conditions: for presence of fluorescent P11-4, 1 mm: incubation 1 mm; for presence of fluorescent P11-4, 6 d: washing in H2O; for presence of fluorescent P11-4, 2 mm: incubation 2 mm; for presence of fluorescent P11-4, 5 mm: incubation 5 mm; for presence of fluorescent P11-4, 4 d: washing in Remin. buffer
Protocol: Creation of artificial lesions on extracted human molar teeth was performed as described by Lo et al. 2010 (J Dent. 38(4):352-359). To define the position of the demineralized subsurface area (i.e., artificial carious lesion or white spot), the tooth was covered with colorless nail varnish, leaving a window of approximately 4×4 mm. The tooth was placed in demineralization buffer (2.2 mM CaCl2, 2.2 mM NaH2PO4, 50 mM acetic acid; pH adjusted with 1 M KOH to 4.4) for 3 d at 37° C. To ensure that all pores are open, as in a typical active caries lesion, the resulting subsurface lesions were treated with 10 μL of 2% NaCIO (incubation for 1 min), rinsed, and air-dried at room temperature.
b) Treatment • A 200 ppm (i.e., 200 μg/ml) solution of P11-4 (SEQ ID NO: 2), spiked with 10 ppm ATT0647-P11-4 (fluorescence labelled P11-4 (SEQ ID NO: 6): Ac-QQRFEWEFEQQSGSGC-(ATT0647)-NH2) , i.e., 1:20, in 25 mM TRIS buffer was prepared at different pH, in particular, at 8.4 or 8.5 or 6.3, 6.5 or 6.8). • As specified in the table below, tooth were optionally pretreated, e.g., by incubation in human saliva for one day (about 24 hours), optionally followed by 5 min sonication (258 hz with a sonic toothbrush, Sonicare Diamond Clean ® (Philips)) or by immersion in 2% NaClO for 1 min. • Tooth were immersed in the P11-4 solution for a defined period of time, 1, 2 or 5 min, and then removed and washed in water for 10 min or in remineralization buffer (2 mM Ca(NO3), 1.2 mM KHPO4, and 60 mM Tris/HC1, pH adjusted to 7.4 with 1 M KOH) for 4 days and/or 6 days. • Confocal assessment after 1, 2 or 5 min incubation was carried out while the teeth were in P11-4 solution, and optionally, after washing in water or in remineralization buffer after 10 min or 4 or 6 days.
Samples were placed in a μ-slide I (ibidi, Martinsried) in dest. water and analyzed by a confocal laser microscope (Olympus IX81). The recorded stack of four 2-dimensional images each projected the lesion volume of 51.4 gm thickness, giving a total assessment depth of 205 gm (objective: UPLSAPO 20x/NA 0.75; helium-neon gas laser; excitation: 633 nm and emission: 668 nm). Images were analyzed by Olympus software (FluoView FV1000).

[1] = tooth 2, pH 8.4, no pretreatment
[2] = tooth 10, pH 8.5, no pretreatment
[3] = tooth ZR1, pH 8.5, sonification, no saliva
[4] = tooth ZR2, pH 8.5, saliva, then NaClO

Ac-QQRFEWEFEQQSGSGC-(ATT0647)-NH2 (N-acetyl, ATTO647 label, C-amide; MOD_RES 1 …ON; fluorescence labelled P11-4; MOD_RES 16 AMIDATION; MOD_RES 16 ATTO647) [fluorescent P11-4]
presence of fluorescent P11-4, 1 mm (tooth 1, pH 8.4, no pretreatment): 4 | presence of fluorescent P11-4, 1 mm [1]: 1 | presence of fluorescent P11-4, 6 d [1]: 1 | presence of fluorescent P11-4, 1 mm (tooth 3, pH 6.3, saliva): 1 | presence of fluorescent P11-4, 2 mm (tooth 3, pH 6.3, saliva): 1 | presence of fluorescent P11-4, 5 mm (tooth 3, pH 6.3, saliva): 1 | presence of fluorescent P11-4, 6 d (tooth 3, pH 6.3, saliva): 1 | presence of fluorescent P11-4, 1 mm (tooth 4, pH 6.3, no saliva): 1 | presence of fluorescent P11-4, 2 mm (tooth 4, pH 6.3, no saliva): 1 | presence of fluorescent P11-4, 6 d (tooth 4, pH 6.3, no saliva): 1 | presence of fluorescent P11-4, 2 mm (tooth 5, pH 8.5, saliva): 1 | presence of fluorescent P11-4, 5 mm (tooth 5, pH 8.5, saliva): 1 | presence of fluorescent P11-4, 1 mm [2]: 1 | presence of fluorescent P11-4, 2 mm [2]: 4 | presence of fluorescent P11-4, 5 mm [2]: 4 | presence of fluorescent P11-4, 1 mm (tooth 11, pH 8.5, saliva): 1 | presence of fluorescent P11-4, 2 mm (tooth 11, pH 8.5, saliva): 1 | presence of fluorescent P11-4, 5 mm (tooth 11, pH 8.5, saliva): 1 | presence of fluorescent P11-4, 4 d (tooth 11, pH 8.5, saliva): 1 | presence of fluorescent P11-4, 4 d (tooth 12, pH 6.5, no saliva): 1 | presence of fluorescent P11-4, 1 mm (tooth 13, pH 6.8, saliva): 1 | presence of fluorescent P11-4, 4 d (tooth 13, pH 6.8, saliva): 1 | presence of fluorescent P11-4, 1 mm [3]: 4 | presence of fluorescent P11-4, 2 mm [3]: 4 | presence of fluorescent P11-4, 5 mm [3]: 4 | presence of fluorescent P11-4, 2 mm [4]: 4 | presence of fluorescent P11-4, 5 mm [4]: 4 | presence of fluorescent P11-4, 1 mm (tooth ZR3, pH 8.5, saliva, then sonification): 1 | presence of fluorescent P11-4, 1 mm (tooth ZR4, pH 8.5, saliva): 1 | presence of fluorescent P11-4, 2 mm (tooth ZR4, pH 8.5, saliva): 1
